Literature values, collected in US20070254858A1, “Contraceptive and Acne Medication Combination and Treatment of Acne and Other Diseases with Reduced Side Effects” (priority 2006, published 2007).
At least one structure is not confirmed: it was looked up by name or label, or the drawing left a doubt.

Test system: progesterone activity
Conditions: 1 mg of progestin; activity of 1 mg of norethindrone taken as baseline

C#C[C@]1(O)CC[C@H]2[C@@H]3CCC4=CC(=O)CC[C@@H]4[C@H]3CC[C@@]21CC [levonorgestrel]
Progestational Activity: 5.3
